Measurements as given in article PMC7819943, “Rice protein-binding microarrays: a tool to detect cis-acting elements near promoter regions in rice”.
This is one part of the list.

Molecular target: T1, OsSMF1 (Oryza sativa, UniProt Q6ZLB0 1-436)
T1 sequence: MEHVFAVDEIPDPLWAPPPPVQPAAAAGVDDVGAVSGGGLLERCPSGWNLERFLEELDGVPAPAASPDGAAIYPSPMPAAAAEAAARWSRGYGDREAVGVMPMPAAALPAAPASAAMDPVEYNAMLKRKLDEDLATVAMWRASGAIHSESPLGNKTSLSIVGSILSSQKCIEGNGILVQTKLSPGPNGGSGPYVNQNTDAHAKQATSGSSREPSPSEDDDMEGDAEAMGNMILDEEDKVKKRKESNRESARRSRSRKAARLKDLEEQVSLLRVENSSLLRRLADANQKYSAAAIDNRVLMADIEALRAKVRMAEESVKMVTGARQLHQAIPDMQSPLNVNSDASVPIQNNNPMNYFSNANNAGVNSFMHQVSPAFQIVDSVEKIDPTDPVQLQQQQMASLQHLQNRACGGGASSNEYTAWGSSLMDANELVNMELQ
Assay: protein-binding microarray (RPBM); PBS, 2% BSA, 51.3 ng/ul salmon testes DNA, 50 uM zinc acetate, 200 nM TF, 25 C, 1 h; high values mean tight binding
Details: protein: recombinant; tags: N-terminal polyhistidine and DsRed monomer fusion (pET32a); chain copies: 2; label: CyDye5-dUTP incorporated in the synthesized complementary strand; 3' TTTTT single-stranded linker to array surface; dsDNA, one strand shown
Procedure, shortened: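 Transcription factors were made in E. coli BL21-CodonPlus as N-terminal fusions to a polyhistidine tag and DsRed, then purified on Ni–NTA. After primer extension with Cy5-dUTP and blocking with 2% BSA, a custom Agilent array was exposed for 1 h at 25 °C to 200 nM protein in PBS, 2% BSA, salmon testes DNA and 50 µM zinc acetate. Washed arrays were scanned on an Axon 4000B, and the binding signal is per-feature fluorescence intensity in arbitrary units.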

In order of falling binding signal:
1. ATGCTAACCAACTAAAATACTTTTCCATGTACCTTACAAGCGGAGTCACCTAGTGCAG  60000 fluorescence intensity (a.u.)
2. TATGAACACATATGTAGCATACGCTTAAATAGACGAAGACCGGAGTCACCTAGTGCAG  40500 fluorescence intensity (a.u.)
3. ATTGAGCTACCAGCAGCCTGCAGGCAGGCAGGCAGGTAGGCGGAGTCACCTAGTGCAG  28200 fluorescence intensity (a.u.)
4. GATTCGTCTCGCGATTTCCATTCAAACTGTGCAATTAGTTCGGAGTCACCTAGTGCAG  28000 fluorescence intensity (a.u.)
5. ATAATTTTCCTCTGGAGCAGCTATATATATGAGACTCTACCGGAGTCACCTAGTGCAG  24900 fluorescence intensity (a.u.)
6. AAGAAAGTTTCATTTTCTAATAATGTATCCTAATTCGAGACGGAGTCACCTAGTGCAG  22700 fluorescence intensity (a.u.)
7. ATTATGAGCCATGATTCTCTCATCATGCAATGTCCCAGCACGGAGTCACCTAGTGCAG  22100 fluorescence intensity (a.u.)
8. AAGATAAATGGTTAAACCTTATATGTGAAACCAGAGAAAACGGAGTCACCTAGTGCAG  21100 fluorescence intensity (a.u.)
9. TTTGAGCCTAATTAATTCATGATTAGCCATAAGTACTGCTCGGAGTCACCTAGTGCAG  20000 fluorescence intensity (a.u.)
10. TTCTCTTCCAAAGGAAATGTATAAATCCACCATTAACTTTCGGAGTCACCTAGTGCAG  19900 fluorescence intensity (a.u.)
11. TTGTAATCCGAAACAGATGGTTGTAATCTGAAACGGATTGCGGAGTCACCTAGTGCAG  19600 fluorescence intensity (a.u.)
12. CCAGTTGAGTTTTGCCTGTGGAGTGGAGCTGAAGCCCCGCCGGAGTCACCTAGTGCAG  16300 fluorescence intensity (a.u.)
13. TGAACTTGTGATTGGATCAGGTGTTGACCATGGGAGATTACGGAGTCACCTAGTGCAG  14300 fluorescence intensity (a.u.)
14. TACGTTGAAACGTACCGATACTTTGCTAACATATACTCCACGGAGTCACCTAGTGCAG  10500 fluorescence intensity (a.u.)
15. TTTTCATACGTGAACACTAGCCTGCCCCTTGAAACGAATGCGGAGTCACCTAGTGCAG  9750 fluorescence intensity (a.u.)
16. GACTCAGCACAAACTGACTAGAGTCAAAGCGCCACGTCGTCGGAGTCACCTAGTGCAG  7590 fluorescence intensity (a.u.)
17. CCTCCACTGGCGCATCCGACGTGGTCTCGGCAAAGTTCGACGGAGTCACCTAGTGCAG  6920 fluorescence intensity (a.u.)
18. GTGATCGGCCGCATTGCTTGCGTGGTGGCACACCGTCAGCCGGAGTCACCTAGTGCAG  6710 fluorescence intensity (a.u.)
19. AAAGGCACAGCAGGATGAAGATCTTGAAATGTTTCTTTGGCGGAGTCACCTAGTGCAG  6510 fluorescence intensity (a.u.)
20. CCTGACCCACATGCCATTGACTCATGTGGGTCCTACATGTCGGAGTCACCTAGTGCAG  5910 fluorescence intensity (a.u.)
21. CAACCATGGCGTCATCCTCTTCCTCCTCCTCCTCCTCCTCCGGAGTCACCTAGTGCAG  5800 fluorescence intensity (a.u.)
22. AATCACAGCACCATCGATTTGATGCCAACTCACATGTTACCGGAGTCACCTAGTGCAG  5480 fluorescence intensity (a.u.)
23. TCTTTCATTACTCATGGAACGGTCCAGATCATCTCTGTGTCGGAGTCACCTAGTGCAG  5130 fluorescence intensity (a.u.)
24. GAGTGAGTAGCTCTTTGACGCGGAAGACGTGTAAAAGTATCGGAGTCACCTAGTGCAG  5060 fluorescence intensity (a.u.)
25. TCAAATGTGTGTACATATATGTCTTCAAATGTGTGTACATCGGAGTCACCTAGTGCAG  4950 fluorescence intensity (a.u.)
26. CACCCGCGTGTATGCCAGCTAGGCTTGGCTCCGACGTGGACGGAGTCACCTAGTGCAG  4790 fluorescence intensity (a.u.)
27. TGTCGGTCGGGCGGCCGCGCGCGCGGCCACGTACACGGCGCGGAGTCACCTAGTGCAG  4770 fluorescence intensity (a.u.)
28. ATCTAAATCTTTTGGCCACGCAAGAGGCTGGCGTGGCCAACGGAGTCACCTAGTGCAG  4640 fluorescence intensity (a.u.)
29. CAGGACCTGACGCAGTCCTCCTCCTTCTTGCCGAGGGTTCCGGAGTCACCTAGTGCAG  4520 fluorescence intensity (a.u.)
30. TAACATCTCTTCGCTGCCATTAGAGAAAATACACGAATGACGGAGTCACCTAGTGCAG  4350 fluorescence intensity (a.u.)
31. CCTCCCCTTCCGTCTCTCCGCGCTCCAGCTCCACGCCAATCGGAGTCACCTAGTGCAG  4310 fluorescence intensity (a.u.)
32. AGGTCTAACACCCGGCACAGGTATAAGACCAGTAGTGCCACGGAGTCACCTAGTGCAG  4280 fluorescence intensity (a.u.)
33. CGCCATGGGCGAGGCGGTGAAGGGGCCAGTGGTGGTGACGCGGAGTCACCTAGTGCAG  4250 fluorescence intensity (a.u.)
34. CAGCCATATGGAGCACGATGTGCAAATGTAGGACCTGTGCCGGAGTCACCTAGTGCAG  4090 fluorescence intensity (a.u.)
35. CGGGGTGGGTGTGGAAGACTGCACACGTTGTACTACAACCCGGAGTCACCTAGTGCAG  4030 fluorescence intensity (a.u.)
36. CAGGCTAGCCCAAAGCTCTACACGTCCTAACTCCAAGCCACGGAGTCACCTAGTGCAG  3900 fluorescence intensity (a.u.)
37. ACCACATCCACTGCCGCGCCACGCCTCTCGGCCGCCACACCGGAGTCACCTAGTGCAG  3770 fluorescence intensity (a.u.)
38. TAGGTGGCAAGATCTATGTCATGATATTAAGTTTTGAGGGCGGAGTCACCTAGTGCAG  3690 fluorescence intensity (a.u.)
39. CCGAGATAATTACGTTGACTGACACATGGGGTCCAATCCACGGAGTCACCTAGTGCAG  3640 fluorescence intensity (a.u.)
40. CATGGGAGCACCGGATCGCGTCTCACGTCAACGTGTCGCGCGGAGTCACCTAGTGCAG  3580 fluorescence intensity (a.u.)
41. CCCACGCGTCCGCTGCCACTTGACGCCGCGCCACGCGCTCCGGAGTCACCTAGTGCAG  3560 fluorescence intensity (a.u.)
42. ACCCGATCCATTGCACATTTGCACTCAACTGTTTCGCCCTCGGAGTCACCTAGTGCAG  3530 fluorescence intensity (a.u.)
43. CCCATCGCCAGAATGTTTGGATGATGTTATCTAGCAACTGCGGAGTCACCTAGTGCAG  3520 fluorescence intensity (a.u.)
44. TGAGTCGCTGCAAATAGAAGGTGTCATGGTATATGGGTGTCGGAGTCACCTAGTGCAG  3500 fluorescence intensity (a.u.)
45. ACCCTATGAAAACTTCGTTTCGAGGCTGCACGTTTGCAATCGGAGTCACCTAGTGCAG  3500 fluorescence intensity (a.u.)
46. TGTTGTTGGTTCCCTCTCCACGGCGACCTCATTGCCTCTCCGGAGTCACCTAGTGCAG  3320 fluorescence intensity (a.u.)
47. TTCGACATCCCCACCTCCCAAGTCACCTTAGGTCAAGGTGCGGAGTCACCTAGTGCAG  3280 fluorescence intensity (a.u.)
48. TCGAAGAAGCCCTTTATTTCTCTTTTCGATACTCACACAACGGAGTCACCTAGTGCAG  3260 fluorescence intensity (a.u.)
49. CGGTCCTCCTCGTCCGTGTTGTCGAGGCGGGGTAGAGGGGCGGAGTCACCTAGTGCAG  3250 fluorescence intensity (a.u.)
50. AATGTAAGTCATTCTAGCATTTCTCATTAACATCAATATGCGGAGTCACCTAGTGCAG  3240 fluorescence intensity (a.u.)
51. ATCAAAGAAACCTCCATGTCAACTAGCCTAGCTAGCTGTTCGGAGTCACCTAGTGCAG  3230 fluorescence intensity (a.u.)
52. GAAACCTCGAGCGCTGCCACTGCCATCTCCGTGCCCATACCGGAGTCACCTAGTGCAG  3230 fluorescence intensity (a.u.)
53. AGCCGGCACGCATGCGTATGTGCACGTAAGTGCTTCGTTCCGGAGTCACCTAGTGCAG  3180 fluorescence intensity (a.u.)
54. GTGCATAGGGTTTCCGACTGGAATTGGGTTGGAGGGGCTTCGGAGTCACCTAGTGCAG  3160 fluorescence intensity (a.u.)
